PubChem BioAssay AID493246 | Drosophila RNAi Screening Center, 2011

- Test: 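Identify essential fly genes by loss of cell viability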 (primary screen)
- Cells: Drosophila Kc and S2R+ cells
- Reagents: long dsRNA against Drosophila genes
- Measured: 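Raw, unnormalised count of remaining cells in each well; per-plate z-scores of cell number underlie the calls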
- Scale: Kc cell number and S2R+ cell number: higher = more cells remaining
- Hit rule: 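Active when the per-plate z-score of cell number is 3 or more in the direction of fewer cells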
The deposit covers about 21,000 reagents; shown is a random part of those with a known target gene and a result. In the full data, 429 (2%) were called active. 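Values are raw and not normalised between plates; calls rest on per-plate z-scores that were not deposited.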 Unmarked entries are inactive. Names joined by + are all predicted targets of the reagent. The record does not give: the amount of reagent, the time to read-out.

gene | dsRNA | Kc cell number, rep 1 | Kc cell number, rep 2 | S2R+ cell number, rep 1 | S2R+ cell number, rep 2
CG32679 | DRSC17644 | 1.14e6 | 1.45e6 | 1.12e6 | 1.15e6
DNAlig1 | DRSC04518 | 1.18e6 | 1.30e6 | 9.19e5 | 9.27e5
CG11768 | DRSC14377 | 1.59e6 | 1.73e6 | 1.19e6 | 1.37e6
eff | DRSC16940 | 1.01e6 | 1.27e6 | 8.21e5 | 7.83e5
CG42306 + Gint3 | DRSC06934 | 1.28e6 | 1.31e6 | 1.08e6 | 1.09e6
CG4830 | DRSC15657 | 1.63e6 | 1.55e6 | 1.34e6 | 1.50e6
isoQC | DRSC11790 | 1.32e6 | 1.45e6 | 1.24e6 | 1.35e6
mu2 | DRSC08726 | 1.49e6 | 1.48e6 | 1.21e6 | 1.22e6
mor | DRSC15378 | 1.24e6 | 1.32e6 | 1.02e6 | 1.20e6
knk | DRSC15993 | 1.77e6 | 1.74e6 | 1.37e6 | 1.51e6
CG14668 | DRSC12254 | 1.49e6 | 1.60e6 | 1.30e6 | 1.48e6
CG14965 | DRSC08424 | 1.35e6 | 1.50e6 | 1.14e6 | 1.11e6
vnd | DRSC17360 | 1.29e6 | 1.72e6 | 1.13e6 | 1.24e6
vnd | DRSC18849 | 1.42e6 | 1.46e6 | 9.65e5 | 1.11e6
Nf1 | DRSC16758 | 5.41e5 | – | 7.43e5 | –
CG15403 | DRSC00417 | 1.55e6 | 1.52e6 | 1.09e6 | 1.28e6
Pli | DRSC16792 | 1.58e6 | 1.72e6 | 1.34e6 | 1.39e6
CG30291 | DRSC03842 | 5.15e5 | – | 8.54e5 | –
CG14471 (retired record) | DRSC04865 | 1.31e6 | 1.44e6 | 1.17e6 | 1.11e6
Alp12 | DRSC02515 | 1.53e6 | 1.64e6 | 1.27e6 | 3.79e5
Pfk | DRSC07506 | 1.36e6 | 1.39e6 | 1.04e6 | 1.17e6
tut | DRSC08909 | 1.44e6 | 1.50e6 | 1.17e6 | 1.33e6
dor | DRSC18765 | 5.37e5 | – | 7.92e5 | –
tho2 | DRSC00646 | 9.73e5 | 8.73e5 | 6.47e5 | 6.22e5
CG5757 | DRSC06951 | 1.41e6 | 1.44e6 | 1.16e6 | 1.21e6
elav | DRSC18772 | 5.08e5 | – | 7.86e5 | –
wnd | DRSC09626 | 1.45e6 | 1.52e6 | 1.07e6 | 1.23e6
wnd | DRSC11046 | 1.52e6 | 1.54e6 | 1.42e6 | 1.39e6
LManV | DRSC03223 | 1.22e6 | 1.18e6 | 9.87e5 | 7.51e5
Trf4 | DRSC00729 | 1.59e6 | 1.56e6 | 1.12e6 | 1.28e6
RpS24 | DRSC04414 | 1.14e6 (active) | 1.14e6 | 8.66e5 | 1.02e6
GstE11 | DRSC06926 | 1.45e6 | 1.47e6 | 1.31e6 | 1.35e6

In a second layout: entries from further up.
{"gene": "eff", "dsRNA": "DRSC16940", "Kc cell number, rep 1": 1.01e6, "Kc cell number, rep 2": 1.27e6, "S2R+ cell number, rep 1": 8.21e5, "S2R+ cell number, rep 2": 7.83e5}
{"gene": "CG42306 + Gint3", "dsRNA": "DRSC06934", "Kc cell number, rep 1": 1.28e6, "Kc cell number, rep 2": 1.31e6, "S2R+ cell number, rep 1": 1.08e6, "S2R+ cell number, rep 2": 1.09e6}
{"gene": "CG4830", "dsRNA": "DRSC15657", "Kc cell number, rep 1": 1.63e6, "Kc cell number, rep 2": 1.55e6, "S2R+ cell number, rep 1": 1.34e6, "S2R+ cell number, rep 2": 1.50e6}
